PubChem BioAssay AID1259298 | Sanger Institute | 2017

Aim: 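Kinome knock-downs lethal on their own or synergising with anchor drugs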 (primary screen)
Cell system: HT55 human colorectal cancer cell line
Reagents: siRNA pool against human genes
Treatment: anchor drug BYL719 1 µM, cetuximab 5 µg/ml or trametinib 10 nM, or DMSO vehicle alone
Measurement: 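Replicate-averaged viability versus wells of non-targeting pool; knock-down-only robust z-score; per-drug synergy score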
Direction: robust z-score, knock-down alone: higher = more cells remaining; low means essential gene; viability vs control pool, no drug: higher = more viable cells
Hit rule: 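Essential when the robust z-score for knock-down alone with DMSO is below -3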
Calls: active = essential (knock-down alone); inactive = no change alone
The whole screen tested 794 reagents; below is a random part of them. Of all reagents, 20 (2.5%) got an active call. 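Calls rest only on the knock-down-alone score; drug synergy scores played no part in them.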 No viability above 1 is reported: the scale is capped. Not all columns of the deposit are shown. The record does not give: the amount of reagent, the time to read-out.

Against COASY, the values are robust z-score, knock-down alone -3.41; viability vs control pool, no drug (fraction) = 0.688; active.
Knock-down of IRAK3 came out at: robust z-score, knock-down alone -2.45; viability vs control pool, no drug (fraction) = 0.763; inactive.
Silencing of GRK7 resulted in: robust z-score, knock-down alone -0.17; viability vs control pool, no drug (fraction) = 0.941; inactive.
Depletion of CEP290 gave: robust z-score, knock-down alone 0.58; viability vs control pool, no drug (fraction) = 1; inactive.
With knock-down of PAK6, the record shows robust z-score, knock-down alone -0.12; viability vs control pool, no drug (fraction) = 0.945; inactive.
Against PSTK, the entry reads robust z-score, knock-down alone 0.58; viability vs control pool, no drug (fraction) = 1; inactive.
After knock-down of AK1 the results were robust z-score, knock-down alone 0.346; viability vs control pool, no drug (fraction) = 0.982; inactive.
LATS1 showed robust z-score, knock-down alone 0.344; viability vs control pool, no drug (fraction) = 0.982; inactive.
Depletion of MERTK resulted in: robust z-score, knock-down alone 0.437; viability vs control pool, no drug (fraction) = 0.989; inactive.
ABL2 gave robust z-score, knock-down alone 0.58; viability vs control pool, no drug (fraction) = 1; inactive.
After knock-down of NEK5, the record shows robust z-score, knock-down alone 0.58; viability vs control pool, no drug (fraction) = 1; inactive.
With knock-down of NEK8, the record shows robust z-score, knock-down alone -1.13; viability vs control pool, no drug (fraction) = 0.866; inactive.
Knock-down of PTGS1 gave: robust z-score, knock-down alone 0.58; viability vs control pool, no drug (fraction) = 1; inactive.
PKN1 scored robust z-score, knock-down alone 0.58; viability vs control pool, no drug (fraction) = 1; inactive.
After knock-down of MED24, the record shows robust z-score, knock-down alone 0.58; viability vs control pool, no drug (fraction) = 1; inactive.
With knock-down of NUAK2, the screen gave robust z-score, knock-down alone -1.15; viability vs control pool, no drug (fraction) = 0.865; inactive.
TRIB2 showed robust z-score, knock-down alone -0.718; viability vs control pool, no drug (fraction) = 0.899; inactive.
With knock-down of UCK2, the record shows robust z-score, knock-down alone 0.58; viability vs control pool, no drug (fraction) = 1; inactive.
After knock-down of ROS1, the screen gave robust z-score, knock-down alone 0.161; viability vs control pool, no drug (fraction) = 0.967; inactive.

Ordered by “robust z-score, knock-down alone” (high to low): 2 of the entries above
NEK5 → robust z-score, knock-down alone = 0.58; viability vs control pool, no drug (fraction) = 1; call = inactive
NEK8 → robust z-score, knock-down alone = -1.13; viability vs control pool, no drug (fraction) = 0.866; call = inactive
